Measured data: PubChem BioAssay AID652272 (Drosophila RNAi Screening Center, 2013)

Test: 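Finding fly genes that regulate Hedgehog signal transduction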 (primary screen)
Cell system: Drosophila clone 8 (Cl8) cells
Reagent: long dsRNA against Drosophila genes
Measured: 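Firefly light from a Hedgehog-responsive ptc promoter reporter and Renilla reference light, both read on a plate reader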
Reading the numbers: firefly Hh reporter signal: higher = more ptc reporter light; Renilla reference signal: higher = more Renilla control light
Call rule: 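Hit when the z-score averaged over two replicates is under -2 or over +3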
Calls: active = hit: reporter lowered or raised; inactive = not a hit
The screen tested about 21,000 reagents; this is a random part of those that have a named target and a result. In the full data, 503 (2.4%) were called active. 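Raw plate light values, not normalised; calls rest on replicate z-scores that were not deposited; hits include reporter decreases as well as increases.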 A plus sign joins genes that one reagent is predicted to hit. Reagent sequences are not shown. The record does not give: the amount of reagent, the time to read-out.

| Gene | DRSC id | firefly Hh reporter signal, replicate 1 | firefly Hh reporter signal, replicate 2 | firefly Hh reporter signal, replicate 3 | Renilla reference signal, replicate 1 | Renilla reference signal, replicate 2 | outcome |
| --- | --- | --- | --- | --- | --- | --- | --- |
| CG2006 + Spase12 | DRSC14316 | 96173 | 1.14e5 | – | 3442 | 2769 | inactive |
| Arl8 | DRSC16334 | 1.04e5 | 1.57e5 | – | 4424 | 4451 | inactive |
| zetaCOP | DRSC11412 | 63691 | – | – | 1282 | 10962 | active |
| CG42346 | DRSC20622 | 85430 | 2.13e5 | – | 2963 | 9878 | inactive |
| CG42346 | DRSC20644 | 77549 | 1.82e5 | – | 2588 | 7964 | inactive |
| Dad1 | DRSC02263 | 1.15e5 | 67627 | – | 2811 | 4160 | inactive |
| CG14196 | DRSC19551 | 68744 | 1.81e5 | – | 1840 | 6819 | inactive |
| Madm | DRSC12129 | 88490 | 1.24e5 | – | 3724 | 3286 | inactive |
| CG15725 | DRSC19691 | 84805 | 2.72e5 | – | 3153 | 10605 | inactive |
| Cyp6a8 | DRSC07384 | 1.94e5 | 85686 | – | 7104 | 2263 | inactive |
| CG17233 | DRSC10259 | 52184 | 64105 | – | 2994 | 3287 | inactive |
| CG32369 | DRSC10042 | 44374 | 58633 | – | 5355 | 3755 | inactive |
| CG32369 | DRSC10834 | 1.62e5 | 1.05e5 | – | 6599 | 4297 | inactive |
| CG18063 | DRSC01968 | 70150 | 47089 | – | 1767 | 4244 | inactive |
| CG6839 | DRSC10723 | 52324 | 63659 | – | 2083 | 2552 | inactive |
| sll | DRSC16271 | 1.13e5 | 93085 | – | 4697 | 3446 | inactive |
| fng | DRSC11455 | 6.93e5 | 2.10e5 | 98072 | 4439 | 4480 | inactive |
| fng | DRSC11887 | 62632 | 54298 | – | 2282 | 2352 | inactive |
| Pgant5 | DRSC03149 | 82429 | 44504 | – | 3531 | 2231 | inactive |
| Aldh7A1 | DRSC11083 | 1.08e5 | 59981 | – | 4316 | 2496 | inactive |
| Oamb | DRSC13433 | 68345 | 1.75e5 | – | 14093 | 3219 | inactive |
| Oamb | DRSC15120 | 5.23e5 | 86131 | – | 35248 | 7234 | inactive |
| Oamb | DRSC16763 | 6.32e5 | 1.44e5 | – | 38953 | 11978 | inactive |
| sws | DRSC18843 | 5.07e5 | 6.63e5 | 2.27e5 | 26045 | 3756 | inactive |
| hb | DRSC16963 | 91691 | 98790 | – | 3865 | 3733 | inactive |
| CG33557 | DRSC17854 | 66922 | 2.17e5 | – | 1964 | 9335 | inactive |
| S1P | DRSC11810 | 1.47e5 | 1.53e5 | – | 5709 | 4273 | inactive |

Not a retest: entries from further up.
| Gene | DRSC id | firefly Hh reporter signal, replicate 1 | firefly Hh reporter signal, replicate 2 | firefly Hh reporter signal, replicate 3 | Renilla reference signal, replicate 1 | Renilla reference signal, replicate 2 | outcome |
| --- | --- | --- | --- | --- | --- | --- | --- |
| CG42346 | DRSC20622 | 85430 | 2.13e5 | – | 2963 | 9878 | inactive |
| CG42346 | DRSC20644 | 77549 | 1.82e5 | – | 2588 | 7964 | inactive |
| Dad1 | DRSC02263 | 1.15e5 | 67627 | – | 2811 | 4160 | inactive |
| CG14196 | DRSC19551 | 68744 | 1.81e5 | – | 1840 | 6819 | inactive |
| Madm | DRSC12129 | 88490 | 1.24e5 | – | 3724 | 3286 | inactive |
| CG15725 | DRSC19691 | 84805 | 2.72e5 | – | 3153 | 10605 | inactive |
| Cyp6a8 | DRSC07384 | 1.94e5 | 85686 | – | 7104 | 2263 | inactive |

The results go on.
| Gene | DRSC id | firefly Hh reporter signal, replicate 1 | firefly Hh reporter signal, replicate 2 | firefly Hh reporter signal, replicate 3 | Renilla reference signal, replicate 1 | Renilla reference signal, replicate 2 | outcome |
| --- | --- | --- | --- | --- | --- | --- | --- |
| P5cr | DRSC16782 | 5.50e5 | 84395 | – | 32205 | 2356 | inactive |
| Eig71Eg | DRSC11154 | 1.66e5 | – | – | 6117 | 4820 | inactive |
| CG6693 | DRSC16097 | 1.19e5 | 76122 | – | 3673 | 2688 | inactive |
| Rbf | DRSC18704 | 77488 | 1.02e5 | – | 1858 | 3456 | inactive |
| CG11122 | DRSC19382 | 1.40e5 | 1.26e5 | – | 3248 | 2938 | inactive |
| fmt | DRSC09717 | 1.14e5 | 1.18e5 | – | 4040 | 3248 | inactive |
| CG4866 | DRSC06899 | 75424 | 58528 | – | 2272 | 5093 | inactive |
| Lkr | DRSC09754 | 26704 | 62794 | – | 5280 | 4676 | inactive |
| CG16782 | DRSC18118 | 93478 | 2.53e5 | – | 2628 | 8593 | inactive |
| CG8034 | DRSC20076 | 78892 | 43245 | – | 2038 | 1208 | inactive |
| snu | DRSC16589 | 1.11e5 | 1.19e5 | – | 2173 | 3098 | inactive |
| HIP + HIP-R | DRSC18245 | 2.05e5 | 1.15e5 | – | 4491 | 3769 | inactive |
| EndoG | DRSC07292 | 1.38e5 | 5.93e5 | 93925 | 5397 | 35036 | inactive |
| nerfin-2 | DRSC14547 | 72304 | 1.04e5 | – | 2336 | 2957 | inactive |
| CG32075 | DRSC10622 | 36823 | 45397 | 46938 | 3584 | 3672 | inactive |
| Arl6 | DRSC07031 | 1.07e5 | 65488 | – | 2249 | 4855 | inactive |
| CG30151 | DRSC05888 | 1.02e5 | 3.03e5 | – | 2693 | 11409 | inactive |
| CG13077 | DRSC02181 | 89328 | 35601 | – | 2064 | 3529 | inactive |
| CG13102 + Rcd-1r | DRSC03266 | 1.24e5 | 1.05e5 | – | 3236 | 7596 | inactive |
| Alg9 | DRSC14407 | 1.17e5 | 66490 | – | 4583 | 2236 | inactive |
| CG15145 | DRSC02446 | 1.22e5 | 48881 | – | 3373 | 4131 | inactive |
| CG7655 | DRSC16275 | 1.62e5 | 65162 | – | 7275 | 2729 | inactive |
| cdm | DRSC16213 | 1.16e5 | 1.10e5 | – | 5501 | 4258 | inactive |
| CG13659 | DRSC14660 | 5.43e5 | 1.31e5 | – | 27891 | 3735 | inactive |
| CG1638 | DRSC15132 | 92929 | 2.54e5 | – | 2793 | 9403 | inactive |
| Tbcc | DRSC00223 | 4.33e5 | 2.28e5 | – | 22323 | 9992 | inactive |
| Hrb27C | DRSC03347 | 68976 | 38660 | – | 3362 | 2128 | inactive |
| sim | DRSC17054 | 69736 | 73261 | – | 2218 | 2099 | inactive |
| CG6695 | DRSC16098 | 95590 | 86135 | – | 3928 | 3529 | inactive |
| CG4945 | DRSC06904 | 85637 | 70860 | – | 4016 | 2731 | inactive |
| CG5885 | DRSC02910 | 1.04e5 | 54773 | – | 4048 | 2352 | inactive |
| Gyc76C + CG42637 | DRSC11180 | 76224 | 45623 | – | 3089 | 2034 | inactive |
| CG43428 | DRSC06205 | 77568 | 38982 | – | 1973 | 3458 | inactive |
| msl-1 | DRSC03573 | 63218 | 45005 | – | 1239 | 3784 | inactive |
| CG14011 | DRSC02343 | 1.04e5 | 54484 | – | 1971 | 5110 | inactive |
| alpha-Man-Ib | DRSC14418 | 88442 | 1.15e5 | – | 1512 | 3211 | inactive |
| nsr | DRSC04427 | 1.84e5 | 1.58e5 | – | 7098 | 5936 | inactive |
| Rrp5 | DRSC15862 | 89613 | 76532 | – | 4640 | 3705 | inactive |
| CG2187 | DRSC15425 | 97882 | 1.98e5 | – | 3810 | 8336 | inactive |
| Vml | DRSC17695 | 4.49e5 | 1.53e5 | – | 22896 | 3096 | inactive |
| Vml | DRSC18529 | 1.15e5 | 2.25e5 | – | 1718 | 9609 | inactive |
| CG5808 | DRSC14124 | 1.15e5 | 56656 | – | 5217 | 2973 | inactive |
| pst | DRSC11003 | 65248 | 39747 | – | 3072 | 1696 | inactive |
| CG31219 | DRSC15140 | 5.89e5 | 95857 | – | 29460 | 2739 | inactive |
| Tmhs | DRSC08231 | 1.10e5 | 97351 | – | 5219 | 4053 | inactive |
| CG11977 | DRSC14454 | 62816 | 91676 | – | 3201 | 3075 | inactive |
